# Patent US20040166183A1, “Methods and means for preventing or treating inflammation or pruritis” (priority 1998, published 2004)
# Some results were stated once for a whole list of compounds, not compound by compound.
# B1: STI-A: STI-type I-S Sigma T 9003 (protein, UniProt P01070 25-205, looked up)
# Trypsin inhibitor A: DFVLDNEGNPLENGGTYYILSDITAFGGIRAAPTGNERCPLTVVQSRNELDKGIGTIISSPYRIRFIAEGHPLSLKFDSFAVIMLCVGIPTEWSVVEDLPEGPAVKIGENKDAMDGWFRLERVSDDEFNNYKLVFCPQQAEDDKCGDIGISIDHDDGTRRLVVSKNKPLVVQFQKLDKESL
# Tested on: bovine pancreatic elastase
# Assay: Effect of protease inhibitors on purified enzymes: elastase (azocasein)
# Type: biochemical
# Details: preliminary experiments; range over the listed inhibitors
# Description: Proteolytic activity was determined in the fecal homogenates in appropriate dilutions (up to 250-fold) in 0.1 M phosphate buffer (pH 7.6). Penicilline (0.1% w/v) was added to prevent bacterial growth. In the more recent inhibition tests no penicillin was used. Samples of 0.1 ml were incubated with 0.1 ml 1% (w/v) azocasein (Sigma) in phosphate buffer at 37° C. during 1 h. The reaction was stopped by addition of 0.2 ml 10% (w/v) trichloroacetic acid (TCA); after 10 min at room temperature unhydrolysed azocasein, bacteria and other particles were removed by centrifugation at 10,000 rpm during 10 min. Then 0.1 ml of the clear supernatant was transferred to 0.1 ml of 1 N NaOH in flatbottom 24 wells microplates. To the blank assays azocasein was added after incubation an addition of TCA. The absorption of the samples was measured at 450 nm and compared with standard curves obtained from solutions of azocasein. Proteolytic activity was expressed as milligrams azocasein hydrolysed during 1 h per gram dry or wet weight of sample. Each diluted sample was tested for other than enzymatic substrate hydrolysis after heating at 80° C. for 10 min. Spontaneous substrate hydrolysis was tested by incubation of the substrate with buffer. […]
molecule,measurement,value
B1,suppression of the activity of elastase,10-55%
